Construct, isoform or probe ends are uncertain for at least one entry.

Sequences of proteins named here, by UniProt entry; tags and fusion partners are left off. A change or cut given only in a name is not applied to a line headed by its entry.
UniProt Q04609: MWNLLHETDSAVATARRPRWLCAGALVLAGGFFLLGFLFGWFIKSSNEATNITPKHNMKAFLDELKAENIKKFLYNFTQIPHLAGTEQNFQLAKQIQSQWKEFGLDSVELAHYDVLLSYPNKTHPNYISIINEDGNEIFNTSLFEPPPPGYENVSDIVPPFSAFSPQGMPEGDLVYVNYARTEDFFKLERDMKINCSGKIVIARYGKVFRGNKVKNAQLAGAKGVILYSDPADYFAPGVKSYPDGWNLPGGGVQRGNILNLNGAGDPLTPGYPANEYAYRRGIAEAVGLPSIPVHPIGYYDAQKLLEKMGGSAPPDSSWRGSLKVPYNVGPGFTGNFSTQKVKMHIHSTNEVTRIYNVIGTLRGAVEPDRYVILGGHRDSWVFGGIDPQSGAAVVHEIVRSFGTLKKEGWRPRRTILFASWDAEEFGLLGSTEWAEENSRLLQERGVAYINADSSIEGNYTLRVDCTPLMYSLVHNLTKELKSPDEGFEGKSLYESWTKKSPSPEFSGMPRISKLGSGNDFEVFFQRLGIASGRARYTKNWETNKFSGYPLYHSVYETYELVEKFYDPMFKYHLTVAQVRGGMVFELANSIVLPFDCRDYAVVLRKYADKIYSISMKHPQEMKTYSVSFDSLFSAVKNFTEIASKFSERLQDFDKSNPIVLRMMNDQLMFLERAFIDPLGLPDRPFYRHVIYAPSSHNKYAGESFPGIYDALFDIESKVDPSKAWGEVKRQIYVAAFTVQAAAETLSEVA

The target of this series is PSMA (prostate-specific membrane antigen, on LnCap cells) (UniProt Q04609). The experiment in a line: activity in cells. As to conditions: 2'-F C and U (2'-fluoro-CTP/UTP transcription); binding and internalization in LnCap cells by RT-qPCR; signal reduced by Riboshredder, abolished by azide/deoxyglucose plus Riboshredder; protein on the cell surface; protein details: endogenous on LnCap cells (ATCC); dose not given here. Background: Quantitative PCR measures a nucleic acid by following its amplification.

“GGGAGGACGAUGCGGACCGAAAAAGACCUGACUUCUAUACUAAGUCUACGUUCCCAGACGACUCGCCCGA [A9 anti-PSMA aptamer]”: the “functional effect of the aptamer” value was “active”.
